# Values joined by “and” are separate entries in the source; they are usually repeats but may differ in a detail not shown here. Equal entries are not always repeated. Screen size: about 410,000 compounds; about 18,000 (4.4%) were called active. Inconclusive results, whose numbers are uncertain, are shown with a selection of clear calls. No stated cut-off is given here; in the data, active means activity change below about -60%; inconclusive means no clear call, values can overlap the other calls; inactive means above about -39%. More than one record can exist for a structure, and the calls need not agree.
# Test: qHTS Assay for inhibitors of the human cytomegalovirus (HCMV)
# Conditions: HFF cells, HCMV-luciferase reporter, 72 h; at 57.5 µM; hits give low values
# Outline: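 Inhibition of viral replication was scored as loss of reporter luminescence in HFFs infected with HCMV-luciferase (MOI 1 PFU/cell) for 72 h; compounds tested at 2 doses, normalized to buffer and Salinomycin controls.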
# On the % scale 0 is the no-effect control and ±100 the full control effect.
row,Compound,"activity change, negative = inhibition"
1,CCSc1nc2ccccc2c(=O)n1Cc1ccc(F)cc1,inconclusive: -40.7%
2,Cc1ccccc1-c1nc2cc(Cl)ccc2c(=O)o1,inconclusive: -58.5%
3,COc1cc(C(=O)Oc2ccccc2/C=N/NC(=O)c2ccc(C)cc2)cc(OC)c1OC,active: -98.9%
4,CN1CCN(C(=O)C2CCCN(S(=O)(=O)c3ccc(Cl)cc3)C2)CC1 (configuration not stated),inconclusive: -41.2%
5,CC(C)N(C(=O)COC(=O)[C@H](C)NC(N)=O)c1ccccc1,inconclusive: -46%
6,CN(C)CCCN1c2ccccc2Sc2ccc(Cl)cc21,active: -66.1%
7,Cc1cc(C(=O)N2CCCC(N3CCN(c4cccc(C(F)(F)F)c4)CC3)C2)n[nH]1 (configuration not stated),inconclusive: -43.7%
8,Cc1ccc(C)c(NS(=O)(=O)c2ccc(-c3ccc(=O)[nH]n3)o2)c1,inactive: -8.55%
9,Nc1nonc1-n1nnc(C(=O)N/N=C/c2cccc(Cl)c2Cl)c1CN1CCCC1,active: -61.3%
10,CC1CCN(C(=O)CN2CCSc3ccc(S(=O)(=O)N(C)C)cc32)CC1,inactive: -6.99%
11,Oc1c(Br)cc(Br)cc1/C=N/NC(=S)N[C@H]1CC2C=CC1C2 (some centres not stated),inconclusive: -44.3%
12,Cc1ccc(OCCCC(=O)Nc2nnc(C3CCCO3)s2)c(C)c1 (configuration not stated),inconclusive: -52.5%
13,COc1nc(N(C)C)nc(-n2nnc(C(C)=O)c2C)n1,inconclusive: -44.9%
14,CC1CN(C(=O)CSc2nc(-c3ccccc3)cs2)CC(C)O1 (configuration not stated),inconclusive: -40.9%
15,C=CCNC(=O)COC(=O)c1oc2ccccc2c1CSC1CCCCC1,inconclusive: -43.7%
16,O=C(c1cccs1)N(Cc1cccc(F)c1)C1CCS(=O)(=O)C1 (configuration not stated),inactive: 2.95%
17,O=C(c1cc(Cl)ccc1[N+](=O)[O-])n1cnc2ccccc21,inconclusive: -51.6%
18,COc1ccccc1NC(=O)c1sc2nc(C)c(C(=O)Nc3ccc(Cl)cc3)c(-c3ccc(Br)cc3)c2c1N,active: -104%
19,CCOc1ccc(CCNC(=O)C2CCCN(c3nn4c(=O)cc(C)nc4s3)C2)cc1 (configuration not stated),inconclusive: -54.2%
20,C=CCn1c(CCC(O)CCCCC)n[nH]c1=S (configuration not stated),inconclusive: -58.2%
21,CCc1cccc(NC(=O)c2cc(S(=O)(=O)N3CCCCCC3)cn2C)c1,inactive: 11.5%

row,Compound,"activity change, negative = inhibition"
1,O=C(CCc1c[nH]c2ccccc12)N1CCN(c2ccc(O)cc2)CC1,active: -64.6%
2,CN(Cc1ccccc1)C(=O)C1CCCN1S(=O)(=O)c1ccc2c(c1)n(C)c(=O)c(=O)n2C (configuration not stated),inactive: 6.63%
3,Cc1ccc(NC(=O)c2cccc(NC3=NC4CS(=O)(=O)CC4S3)c2)cc1 (configuration not stated),inactive: -15.5%
4,CC(=O)c1ccc2c(c1)C1C=CCC1C(C(=O)O)N2 (configuration not stated),inactive: 24.7%
5,CCC(C)C(=O)Nc1ccccc1N1CCN(c2ccc(F)cc2)CC1 (configuration not stated),inconclusive: -46.9%
6,CCOC(=O)C1(Cc2ccc(OC)cc2)CCN(C(=O)c2cc(C)nn2C)CC1,inconclusive: 0%
7,COc1ccc(OC)c(C(=O)c2ccc(C(=O)Nc3ccc(NC(C)=O)cc3)cc2)c1,inconclusive: -57.4%
8,N/C(=N\OC(=O)c1ccccc1Cl)c1cccc([N+](=O)[O-])c1,inactive: 50.5%
9,O=C1CC(c2nnc(Cc3ccc(F)cc3)o2)CN1c1ccccc1 (configuration not stated),inactive: -14.4%
10,Cc1cc(Br)ccc1NC(=O)CN1C(=O)C2C3CC(c4ccccc4)C(C3)C2C1=O (configuration not stated),inconclusive: -51.5%
11,Clc1ccccc1CN(Cc1ccccc1)C(c1cccs1)c1nnnn1C1CCCC1 (configuration not stated),inconclusive: -52%
12,O=c1[nH]c2ccccc2n2c(-c3ccccc3)nnc12,inconclusive: -41.9%
13,Cn1cnnc1SCC(=O)Nc1ccc2nc(SCc3cccc4ccccc34)sc2c1,inconclusive: -54.6%
14,Cc1noc(C)c1S(=O)(=O)N(CC(=O)Nc1ccc2c(c1)OCO2)c1ccc(C(C)C)cc1,inconclusive: -47.3%
15,CC1CCN(C(=O)CSc2ccc(-c3cccc([N+](=O)[O-])c3)nn2)CC1,inconclusive: -51.4%
16,CC(=O)c1cc(F)c(N2CCN(C(=O)C(C)(C)C)CC2)cc1C,inactive: 17.1%
17,CCOc1ccccc1CNC(=O)C1CCN(c2nnc(C)c3c(C)n(-c4ccc(C)cc4)nc23)CC1,active: -61.9% and active: -86.5%
18,CON(C)C(=O)/C=C/CCCCNC(=O)OC(C)(C)C,inactive: 20.3%
19,COCCN(C(=O)CCC(=O)Nc1cc(C)on1)C(C(=O)NC(C)(C)C)c1ccc(OC)cc1 (configuration not stated),inconclusive: -53.4%
20,COc1ccc2cc(C(=O)NCc3ccccc3)[nH]c2c1,inconclusive: -54.8%
21,O=C(Oc1ccc(C(=S)N2CCOCC2)cc1Cl)c1ccccc1F,inactive: 18.4%

# Rewritten with tabs: 12 of the compounds above
row	Compound	activity change, negative = inhibition
6	CCOC(=O)C1(Cc2ccc(OC)cc2)CCN(C(=O)c2cc(C)nn2C)CC1	inconclusive: 0%
7	COc1ccc(OC)c(C(=O)c2ccc(C(=O)Nc3ccc(NC(C)=O)cc3)cc2)c1	inconclusive: -57.4%
8	N/C(=N\OC(=O)c1ccccc1Cl)c1cccc([N+](=O)[O-])c1	inactive: 50.5%
9	O=C1CC(c2nnc(Cc3ccc(F)cc3)o2)CN1c1ccccc1 (configuration not stated)	inactive: -14.4%
10	Cc1cc(Br)ccc1NC(=O)CN1C(=O)C2C3CC(c4ccccc4)C(C3)C2C1=O (configuration not stated)	inconclusive: -51.5%
11	Clc1ccccc1CN(Cc1ccccc1)C(c1cccs1)c1nnnn1C1CCCC1 (configuration not stated)	inconclusive: -52%
12	O=c1[nH]c2ccccc2n2c(-c3ccccc3)nnc12	inconclusive: -41.9%
13	Cn1cnnc1SCC(=O)Nc1ccc2nc(SCc3cccc4ccccc34)sc2c1	inconclusive: -54.6%
14	Cc1noc(C)c1S(=O)(=O)N(CC(=O)Nc1ccc2c(c1)OCO2)c1ccc(C(C)C)cc1	inconclusive: -47.3%
15	CC1CCN(C(=O)CSc2ccc(-c3cccc([N+](=O)[O-])c3)nn2)CC1	inconclusive: -51.4%
16	CC(=O)c1cc(F)c(N2CCN(C(=O)C(C)(C)C)CC2)cc1C	inactive: 17.1%
17	CCOc1ccccc1CNC(=O)C1CCN(c2nnc(C)c3c(C)n(-c4ccc(C)cc4)nc23)CC1	active: -61.9% and active: -86.5%
